Experimental data published in the supplement of paper PMC7877785.
± gives the uncertainty stated by the source. Many entries were measured with a wide error.

Test: self-splicing fitness, log relative to wild type (ln ratio); higher = more splicing; Tetrahymena group I intron in knt gene, E. coli kanamycin selection, DiMSum; sequences stand for … in CUCUCU…GGAGGGAAAAGUUAUCAGGCAUGCACCUGGUAGCUAGUCUUUAAACCAAUAGAUUGCAUCGGUUUAAAAGGCAAGACCGUCAAAUUGCGGGAAAGGGGUCAACAGCCGUUCAGUACCAAGUCUCAGGGGAAACUUUGAGAUGGCCUUGCAAAGGGUAUGGUAAUAAGCUGACGGACAUGGUCCUAACCACGCAGCCAAGUCCUAAGUCAACAGAUCUUCUGUUGAUAUGGAUGCAGUUCACAGACUAAAUGUCGGUCGGGGAAGAUGUAUUCUUCUCAUAAGAUAUAGUCGGACCUCUCCUUAAUGGGAGCUAGCGGAUGAAGUGAUGCAACACUGGAGCCGCUGGGAACUAAUUUGUAUGCGAAAGUAUAUUGAUUAGUUUUGGAGUACUCGUGGUCG
Procedure, shortened: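 A randomised library covering all eight P1ex-region intron nucleotides was built with the intron in the knt kanamycin-resistance gene on pET-22b(+) and held in E. coli BL21(DE3). Cells were grown overnight at 37°C or 30°C on LB agar, with or without 25 μg/mL kanamycin, plus 100 μg/mL carbenicillin, 50 μM IPTG and 0.2% rhamnose, and pooled colonies were amplicon-sequenced on an Illumina HiSeq 2500. DiMSum fitness is the error-weighted combination of wild-type-normalised replicate fold changes, kanamycin versus none.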

| Sequence | self-splicing fitness (ln) (37 °C) | self-splicing fitness (ln) (30 °C) |
| --- | --- | --- |
| CCUUAGCAAUAUUACGAAGG | -3.69 ± 0.73 |  |
| CCUCAGCAAUAUUACGGACC |  | -5.51 ± 0.58 |
| CUGUAGCAAUAUUACGAGCA |  | -3.13 ± 0.54 |
| AGCGAGCAAUAUUACGAAAG |  | -3.7 ± 0.76 |
| CGCGAGCAAUAUUACGCAUU | -3.29 ± 0.35 | -2.71 ± 0.18 |
| GGAGAGCAAUAUUACGAAAG | -2.94 ± 0.74 |  |
| CCGUAGCAAUAUUACGCAAA | -2.24 ± 0.25 | -3.13 ± 0.74 |
| UACGAGCAAUAUUACGAGCU | -1.74 ± 0.66 |  |
| UUAAAGCAAUAUUACGGUCC |  | -3.06 ± 1.1 |
| CUCUAGCAAUAUUACGAACA |  | -4.69 ± 0.59 |
| GAUAAGCAAUAUUACGAGGC |  | -4.1 ± 1 |
| AAUUAGCAAUAUUACGAGUC |  | -5.29 ± 0.72 |
| CGCUAGCAAUAUUACGAGAA |  | -4.04 ± 1.1 |
| UUCGAGCAAUAUUACGCCCU | -0.927 ± 1.2 | -3.68 ± 0.53 |
| UAAGAGCAAUAUUACGCCGA | -3.18 ± 1 |  |
| CGGAAGCAAUAUUACGCGAC | -3.18 ± 0.74 |  |
| GGUGAGCAAUAUUACGUACA | -0.0341 ± 0.92 |  |
| GAAGAGCAAUAUUACGACGU | -0.536 ± 0.18 | -0.922 ± 0.16 |
| CCAGAGCAAUAUUACGACAA |  | -2.56 ± 0.62 |
| GCUCAGCAAUAUUACGCACG | -1.02 ± 0.24 | -3.19 ± 0.31 |
| GAAGAGCAAUAUUACGCAAC | -2.41 ± 0.65 | -2.54 ± 0.6 |
| UAAUAGCAAUAUUACGGGUA | -0.433 ± 0.14 | -1.9 ± 0.17 |
| UCGGAGCAAUAUUACGAUAU | -1.05 ± 0.75 | -3.77 ± 1 |
| UUUUAGCAAUAUUACGGGCC | -2.09 ± 0.78 |  |

| Sequence | self-splicing fitness (ln) (37 °C) | self-splicing fitness (ln) (30 °C) |
| --- | --- | --- |
| GGAGAGCAAUAUUACGCAAA | -1.44 ± 0.52 |  |
| AUUCAGCAAUAUUACGGGGU | -2.85 ± 0.26 | -3.78 ± 0.39 |
| UACGAGCAAUAUUACGAAAU |  | -4.91 ± 0.51 |
| UUUAAGCAAUAUUACGUCAC | -2.5 ± 0.54 | -3.03 ± 0.75 |
| AGCCAGCAAUAUUACGAAUG |  | -4.5 ± 0.51 |
| GGGCAGCAAUAUUACGCGGC |  | -2.78 ± 0.54 |
| AUGGAGCAAUAUUACGGCUC | -1.08 ± 0.93 |  |
| CGACAGCAAUAUUACGGAUU | -1.73 ± 0.099 | -3.77 ± 0.17 |
| ACGUAGCAAUAUUACGAAUG | -1.53 ± 0.12 | -2.89 ± 0.13 |
| AAUGAGCAAUAUUACGGACG | -3.66 ± 0.6 |  |
| CAUAAGCAAUAUUACGCAUA | -1.71 ± 0.24 | -2.48 ± 0.18 |
| UGGUAGCAAUAUUACGCAAG | -3.29 ± 0.52 | -4.04 ± 0.76 |
| GAAUAGCAAUAUUACGGAAU | -1.66 ± 0.2 | -2.69 ± 0.17 |
| CGUAAGCAAUAUUACGUUAG | -0.964 ± 0.081 | -1.34 ± 0.072 |
| GGGUAGCAAUAUUACGAAGC |  | -1.06 ± 1 |
| UGGGAGCAAUAUUACGAGGA |  | -1.42 ± 0.56 |
| AGUGAGCAAUAUUACGCAUA | -2.56 ± 0.29 | -4.2 ± 0.43 |
| ACCGAGCAAUAUUACGAAUA | -2.41 ± 0.2 | -3.02 ± 0.32 |
| CUAGAGCAAUAUUACGUUCU | -2.21 ± 0.22 | -3.79 ± 0.21 |
| UCGGAGCAAUAUUACGAGCC | -1.51 ± 0.56 |  |
| UGGGAGCAAUAUUACGGCGU |  | -2.71 ± 1.1 |
| GGUGAGCAAUAUUACGCUUC |  | -2.77 ± 0.54 |
| UCUGAGCAAUAUUACGAUCC | -1.28 ± 0.57 | -3.91 ± 0.72 |

Record cards, from the list above:
GAUAAGCAAUAUUACGAGGC in the list: self-splicing fitness (ln) (30 °C) = -4.1 ± 1
GGUGAGCAAUAUUACGUACA in the list: self-splicing fitness (ln) (37 °C) = -0.0341 ± 0.92
